Experimental data taken from the supplement of paper PMC8256030.
Values joined by “and” are separate entries in the source; they are usually repeats but may differ in a detail not shown here. Equal values may be shown once. The list shows a part of the results. This data set is noisy: repeats of one test often differ as much as different tests do.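 HEK293T cells were given each compound shortly before transfection with a reporter in which red mCherry is followed by the SARS-CoV-2 frameshift element and then GFP in the −1 frame, so GFP appears only after frameshifting.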

System: SARS-CoV-2 -1 PRF reporter mCherry-FSE-GFP(-1)
Assay: mCherry (red) intensity as percent of control; higher = higher upstream reporter expression
Conditions: 10 µM; 24 h; HEK293T

Question: With Cc1ncc(CSSCc2cnc(C)c(O)c2CO)c(CO)c1O [pyritinol] as the compound, how does the mCherry read?
Answer: The mCherry was 88.5%.

Question: For CCC(C)(C)c1ccc(OCCCCCCN2CCN(c3ccc(C)c(Cl)c3)CC2)cc1 [teroxalene], which mCherry is on record?
Answer: Its mCherry is 39%.

Question: O=[N+]([O-])c1ccc(O)c2ncccc12 [nitroxoline] was tested. Which mCherry did it give?
Answer: Its mCherry is 87.9%.

Question: O=C(Nc1ccc(O)cc1)c1ccccc1O [osalmid] was tested. Which mCherry did it give?
Answer: The mCherry was 96.3%.

Question: With O=C1OC(CN2CCOCC2)CN1/N=C/c1ccc([N+](=O)[O-])o1 (stereo not drawn) [furaltadone] as the compound, how does the mCherry read?
Answer: Its mCherry is 118%.

Question: For C[N+](C)(C)CCOP(=O)(O)OC[C@H](O)CO [choline alfoscerate], which mCherry is on record?
Answer: Its mCherry is 101%.

Question: With O=S1(=O)CCN(CN2CCS(=O)(=O)NC2)CN1 [taurolidine] as the compound, how does the mCherry read?
Answer: Its mCherry is 70%.

Question: How did the mCherry turn out when CN1CCC(=C2c3ccccc3CCc3sccc32)CC1 [pizotifen] was run?
Answer: Its mCherry is 107%.

Question: For O=c1[nH]c2ccccc2n1CCCN1CCN(C(c2ccccc2)c2ccccc2)CC1 [oxatomide], which mCherry is on record?
Answer: The mCherry was 82.4%.

Question: Which mCherry does the source give for CCc1nn(CCCN2CCN(c3cccc(Cl)c3)CC2)c(=O)n1CCOc1ccccc1 [Nefazodone] here?
Answer: The mCherry was 38.6%.

Question: For N[C@@H](CCC(=O)O)C(=O)O [glutamic acid], which mCherry is on record?
Answer: The mCherry was 60.5%.

Question: How did the mCherry turn out when N=C(N)N/N=C/c1c(Cl)cccc1Cl [Guanabenz] was run?
Answer: The mCherry was 76.3%.

Question: Which mCherry does the source give for CCC[C@@H]1C[C@@H](C(=O)N[C@@H]([C@H]2O[C@H](SC)[C@H](O)[C@@H](O)[C@H]2O)[C@H](C)Cl)N(C)C1 [Cleocin] here?
Answer: The mCherry was 134% and 128%.

Question: Which mCherry does the source give for C=C1c2cccc(O)c2C(O)=C2C(=O)[C@]3(O)C(O)=C(C(N)=O)C(=O)[C@@H](N(C)C)[C@@H]3[C@@H](O)[C@H]12 here?
Answer: The mCherry was 86.6%.

Question: For O=C(c1cc(Cc2n[nH]c(=O)c3ccccc23)ccc1F)N1CCN(C(=O)C2CC2)CC1 [Olaparib], which mCherry is on record?
Answer: Its mCherry is 98.8%.

Question: For CCN1CCC[C@H]1CNC(=O)c1c(OC)ccc(Br)c1OC [remoxipride], which mCherry is on record?
Answer: Its mCherry is 92.3%.

Question: For C=C(NC(=O)c1csc(-c2nc3c(cc2O)-c2nc(cs2)C(=O)NC(C(C)O)C(=O)N/C(=C\C)c2nc(cs2)C(=O)NC2CC(O)C(=O)OCc4cccc5[nH]c(c(C)c45)C(=O)SCC(NC(=O)c4csc2n4)c2nc-3cs2)n1)C(N)=O (stereo not drawn) [nosiheptide], which mCherry is on record?
Answer: Its mCherry is 76.7%.

Question: With O=C(O)COCCN1CCN(C(c2ccccc2)c2ccc(Cl)cc2)CC1 (stereo not drawn) [cetirizine] as the compound, how does the mCherry read?
Answer: Its mCherry is 91.6% and 113% and 88.9%.

Question: With CN(C)CCN(Cc1ccccc1)c1nc2ccccc2o1 [oxadimedine] as the compound, how does the mCherry read?
Answer: The mCherry was 143%.

Question: For C=C(C)[C@@H]1CC[C@]2(C(=O)O)CC[C@]3(C)[C@H](CC[C@@H]4[C@@]5(C)CC[C@H](OC(=O)CC(C)(C)C(=O)O)C(C)(C)[C@@H]5CC[C@]43C)[C@@H]12 [bevirimat], which mCherry is on record?
Answer: Its mCherry is 126%.

Question: For CCN1CCN(C(=O)N[C@@H](C(=O)N[C@@H]2C(=O)N3[C@@H]2SC(C)(C)[C@@H]3C(=O)O)c2ccccc2)C(=O)C1=O, which mCherry is on record?
Answer: The mCherry was 120%.

Question: For COCC(=O)O[C@]1(CCN(C)CCCc2nc3ccccc3[nH]2)CCc2cc(F)ccc2[C@@H]1C(C)C [mibefradil], which mCherry is on record?
Answer: The mCherry was 126%.

Question: Which mCherry does the source give for O=P1(NCCCl)OCCCN1CCCl (stereo not drawn) [ifosfamide] here?
Answer: Its mCherry is 107% and 95%.

Question: Which mCherry does the source give for Nc1cc(Cl)c(N=C2NCCN2)c(Cl)c1 [apraclonidine] here?
Answer: The mCherry was 117%.

Question: CCN(CC)C(=O)c1cccnc1 [nikethamide] was tested. Which mCherry did it give?
Answer: Its mCherry is 92%.

Question: For C[C@](N)(Cc1ccc(O)cc1)C(=O)O [metirosine], which mCherry is on record?
Answer: The mCherry was 129%.

Question: With NC(=O)c1ccc(F)c2c1C[C@@H](N(C1CCC1)C1CCC1)CO2 [robalzotan] as the compound, how does the mCherry read?
Answer: Its mCherry is 105%.

Question: How did the mCherry turn out when Cn1nnnc1SCC1=C(C(=O)O)N2C(=O)[C@@H](NC(=O)[C@H](OC=O)c3ccccc3)[C@H]2SC1 was run?
Answer: Its mCherry is 136%.

Question: CC1=C(CC(=O)O)c2cc(F)ccc2/C1=C\c1ccc([S+](C)[O-])cc1 (stereo not drawn) [sulindac] was tested. Which mCherry did it give?
Answer: The mCherry was 86.9%.

Question: Which mCherry does the source give for C[N+](C)(C)CC(O)CC(=O)[O-] (stereo not drawn) here?
Answer: Its mCherry is 115%.

Question: How did the mCherry turn out when CC(=O)Oc1cccc(C)c1 was run?
Answer: The mCherry was 95.7%.

Question: With C[C@@H]1C[C@H]2[C@@H]3C[C@H](F)C4=CC(=O)C=C[C@]4(C)[C@H]3[C@@H](O)C[C@]2(C)[C@@]1(O)C(=O)CO [Paramethasone] as the compound, how does the mCherry read?
Answer: The mCherry was 90.2%.

Question: How did the mCherry turn out when C[C@H](CCC(=O)NCCS(=O)(=O)O)[C@H]1CC[C@H]2[C@@H]3[C@H](O)C[C@@H]4C[C@H](O)CC[C@]4(C)[C@H]3C[C@H](O)[C@]12C [Taurocholic acid] was run?
Answer: The mCherry was 88.9%.
